# In PubChem BioAssay AID624405 (Broad Institute, 2012):
# The whole screen tested about 1,900 compounds, of which about 250 (13%) were called active. About 4% were inconclusive and are not listed.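 How the source made its calls: active means fitted curve reaches 40% rescue activity at or below the top valid dose, in every test run; inconclusive means test runs disagree, some active and some inactive; inactive means every run misses the threshold or moves the wrong way.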 This is a selection; strong and weak results do not stand in their true shares. Potency and affinity values are given separately.
# Test: suppressors of statin myotoxicity in myotubes, dose response, cell-based, C2C12 myotubes, ATP luminescence, cherry pick (AID 624405);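 further: myotubes are challenged with simvastatin at 10 µM to lower ATP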
# Settings: C2C12 myotubes + simvastatin, 48 h, scaled: DMSO wells 0, geranylgeraniol wells 100; at 19.5 µM (top of the series) unless noted
row,Compound,rescue activity (ATP increase)
1,Cc1ccc(-c2ccccc2[C@@H]2C[C@H]3CN(C)C(=O)[C@]34CCCN24)o1,inactive: 35.7%
2,Cc1ccc(S(=O)(=O)Nc2ccc3c(c2)CC(=O)N([C@@H](C)CO)C[C@H](C)[C@H](CN(C)S(=O)(=O)c2cccs2)O3)cc1,inactive: 5.6%
3,O=C(CSCc1ccc(Cl)cc1)N/N=C/c1ccccc1,inactive: -13.5%
4,C[C@H]1CCCCO[C@@H](CN(C)C(=O)NC2CCCCC2)[C@@H](C)CN([C@@H](C)CO)C(=O)c2cc(NC(=O)Nc3cccc4ccccc34)ccc2O1,inactive: 6.67%
5,NC(=O)NC(=O)CSc1nc(-c2ccccc2)c(-c2ccccc2)n1CC1CCCO1 (stereo not given),inactive: 15.9%
6,Cc1nnc(Sc2nc3c(c(=O)n(C)c(=O)n3C)n2Cc2ccccc2Cl)s1,inactive: -13.5%
7,OC[C@@H]1[C@@H]2c3ccccc3NC[C@@H]2N1Cc1ccccc1Cl,inactive: -5.82%
8,COc1ccc(S(=O)(=O)Nc2ccc3c(c2)CC(=O)N([C@H](C)CO)C[C@@H](C)[C@H](CN(C)Cc2ccc(C(F)(F)F)cc2)O3)cc1,inactive: 21.9%
9,C[C@@H]1CN([C@@H](C)CO)C(=O)c2cc(NS(=O)(=O)c3ccc(F)cc3)ccc2O[C@H]1CN(C)S(=O)(=O)c1cccs1,inactive: 1.89% [at 21 µM]
10,CN(c1ccc(C(=O)NCc2ccco2)cc1)S(C)(=O)=O,inactive: 3.46%
11,O=S(=O)(c1ccccc1C(F)(F)F)N1CCN(S(=O)(=O)c2ccccc2C(F)(F)F)CC1,inactive: 16%
12,Cc1c(Cl)cccc1NC(=O)CNC(=O)Cc1n[nH]c(=O)c2ccccc12,inactive: 14.5%
13,C[C@@H]1CCCCO[C@H](CN(C)C(=O)NC2CCCCC2)[C@H](C)CN([C@@H](C)CO)C(=O)c2cc(NC(=O)Nc3cccc4ccccc34)ccc2O1,inactive: 2.49%
14,C[C@@H]1CCCCO[C@@H](CN(C)C(=O)C2CCCCC2)[C@H](C)CN([C@H](C)CO)C(=O)c2cc(NS(=O)(=O)c3ccccc3)ccc2O1,inactive: 8.26%
15,Nc1nc(-c2ccco2)nn1C(=O)CCc1ccccc1,inactive: -0.124%
16,Cc1ccc(CSCC(=O)N2CCOCC2)cc1,inactive: 6.53%
17,C[C@H](CO)N1C[C@H](C)[C@H](CN(C)S(=O)(=O)c2cn(C)cn2)Oc2c(NS(C)(=O)=O)cccc2C1=O,inactive: 4.58%
18,COc1ccc(NC(=O)N(C)C[C@H]2Oc3c(NS(=O)(=O)c4cccs4)cccc3C(=O)N([C@@H](C)CO)C[C@H]2C)cc1,inactive: 5.39%
19,COc1cc(Cl)ccc1NC(=O)COc1ccccc1C(=O)N1CCN(c2ccc(O)cc2)CC1,inactive: 8.49%
20,C[C@@H]1CCCCO[C@@H](CN(C)S(=O)(=O)c2cccs2)[C@H](C)CN([C@H](C)CO)C(=O)c2cc(NC(=O)Nc3ccc(F)cc3)ccc2O1,inactive: -18.3%
21,C[C@H]1CN([C@@H](C)CO)C(=O)c2cccc(NC(=O)c3ccc(-c4nccs4)cc3)c2O[C@@H]1CN(C)CC1CCCCC1,inactive: 12.4%
22,C[C@H]1CN([C@@H](C)CO)C(=O)c2cccc(NC(=O)C3CCCCC3)c2O[C@H]1CN(C)S(=O)(=O)c1ccc(Cl)cc1,inactive: 25.8%
23,C[C@H](CO)N1C[C@H](C)[C@H](CN(C)Cc2ccc(Cl)c(Cl)c2)Oc2ccc(NS(=O)(=O)c3cn(C)cn3)cc2CC1=O,inactive: 21.2% [at 21 µM]

# In the list so far, two contain a CF3 group.
row,Compound,rescue activity (ATP increase)
8,COc1ccc(S(=O)(=O)Nc2ccc3c(c2)CC(=O)N([C@H](C)CO)C[C@@H](C)[C@H](CN(C)Cc2ccc(C(F)(F)F)cc2)O3)cc1,inactive: 21.9%
11,O=S(=O)(c1ccccc1C(F)(F)F)N1CCN(S(=O)(=O)c2ccccc2C(F)(F)F)CC1,inactive: 16%

# Following part

row,Compound,rescue activity (ATP increase)
1,CCOC(=O)Nc1ccc(C)cc1Br,inactive: 36.3%
2,O=c1oc2cc(OCc3ccc(F)cc3F)ccc2cc1-c1ccccn1,inactive: 9.74%
3,COC(=O)c1c(C)oc2ccc(NS(=O)(=O)c3cc(OC)ccc3OC)cc12,inactive: -0.6%
4,C[C@@H]1CN([C@H](C)CO)C(=O)Cc2cc(NC(=O)CCCCCC(=O)Nc3ccccc3N)ccc2O[C@@H]1CN(C)Cc1ccc(C(F)(F)F)cc1,inactive: 11% [at 16 µM]
5,C[C@H](CO)N1C[C@H](C)[C@H](CN(C)C(=O)Nc2cc(F)ccc2F)Oc2cc(C#CC3CC3)ccc2S1(=O)=O,inactive: 31.3%
6,c1ccc(Cn2nnnc2CN2CCN(c3ncccn3)CC2)cc1,inactive: -7.32%
7,O=C(NC1CCCCC1)C1CCN(C(=O)NCc2ccccc2)CC1,inactive: 6.47%
8,COc1ccc(NC(=O)Nc2ccc3c(c2)C(=O)N([C@H](C)CO)C[C@@H](C)[C@H](CN(C)Cc2ccc(C(F)(F)F)cc2)OCCCC[C@H](C)O3)cc1,inactive: -39.1%
9,CSc1nc2nc3c(c(=O)n2[nH]1)CCCC3,inactive: -29.8% [at 10 µM]
10,CCC(CC)c1nnc(NS(=O)(=O)Cc2ccccc2)s1,inactive: 10.8%
11,Cc1ccc(-c2[nH][nH]c(=O)c(=O)c2N=Nc2ccccc2)cc1,inactive: 18.7%
12,CCCS(=O)(=O)N1CCCC(C(=O)N2CCN(c3ccccc3)CC2)C1 (stereo not given),inactive: -9.27%
13,CCCC(CCC(=O)Nc1ccc(C(=O)OCC)cc1)C(=O)O (stereo not given),inactive: 12%
14,COc1ccc(-c2ccc3n(c2=O)C[C@H]2[C@H](CO)[C@@H](C(=O)N(C)C)N(CC4CCCC4)[C@@H]32)cc1,inactive: -3.83%
15,C[C@@H]1CN([C@@H](C)CO)C(=O)c2cccc(NS(C)(=O)=O)c2O[C@H]1CN(C)CC1CCCCC1,inactive: 22.8%
16,Cc1ccc(S(=O)(=O)NCCN=C(CN2CCCC2)NS(=O)(=O)c2ccc(C)cc2)cc1,inactive: 10.6%
17,O=C(c1ccccc1)c1ccc(Cn2cc(CCCO)nn2)cc1,inactive: 35.9%
18,CCOC(=O)CN1CC23C=CC(O2)C(C(=O)NC2CCCCC2)C3C1=O (stereo not given),inactive: -14.9%
19,Cn1c(N)c(C(=O)COC(=O)C2(c3cccc(F)c3)CCCC2)c(=O)n(C)c1=O,inactive: 3.85%
20,O=C(CC(c1ccccc1)c1ccco1)N1CCOCC1 (stereo not given),inactive: -5.94%
21,O=c1c2ccccc2ncn1Cc1nc2ccccc2s1,inactive: -11.5%
22,C[C@@H]1CCCCO[C@@H](CN(C)S(=O)(=O)c2ccc(F)cc2)[C@H](C)CN([C@@H](C)CO)C(=O)c2cc(NC(=O)Nc3cccc4ccccc34)ccc2O1,inactive: 33.3%
